# Experiment: Frequency-selective saturation transfer MR imaging of chloroquine in phantoms (magnetic coupling to water protons)
smiles,measurement,setting,value
"CCN(CC)CCCC(C)Nc1ccnc2cc(Cl)ccc12 (centres unmarked) [Chloroquine, chloroquine]",concentration to which chloroquine coupling to free water was demonstrable,"20% BSA cross-linked phantoms, single targeted saturation pulse train of 256 ms, saturation at 1.15 ppm, GE 4T",< 1 mM
same,"chloroquine coupling to free water, dependence on macromolecules",phantoms with and without BSA,only seen in the presence of macromolecules (BSA)

# From patent US20090088578A1, “NUCLEAR MAGNETIC RESONANCE IMAGING OF SELECTIVE SMALL MOLECULE DRUGS AS CONTRAST AGENTS” (priority 2007, published 2009)
